# Test results from the supplement of paper PMC4604168 (melanoma cell lines).
# This is one part of the list. Many values rest on one well or one pass, so single values are uncertain.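 The apoptosis fraction was the count of cleaved-PARP antibody-stained nuclei relative to all DNA-stained nuclei, imaged in 1,536-well plates. Screening doses were set so most cells survived, and baseline and induced cleaved-PARP levels vary greatly across cell lines.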
# Legend:
# Experiment in all cases: cleaved PARP positive nuclei fraction relative to DMSO control; melanoma cells; higher = more apoptosis
# Conditions in all cases: library dose: low library concentration; 72 h
# [1] = tested on: 501Mel
# [2] = tested on: A101D
# [3] = tested on: A2058
# [4] = tested on: A375
# [5] = tested on: C32
# [6] = tested on: CBRC008 (line from a melanoma biopsy)
# [7] = tested on: CBRC014 (line from a melanoma biopsy)
# [8] = tested on: CBRC016 (line from a melanoma biopsy)
# [9] = tested on: CBRC017 (line from a melanoma biopsy)
# [10] = tested on: CBRC013 (line from a melanoma biopsy)
Structure (SMILES),cleaved PARP positive nuclei fraction [1] [%],cleaved PARP positive nuclei fraction [2] [%],cleaved PARP positive nuclei fraction [3] [%],cleaved PARP positive nuclei fraction [4] [%],cleaved PARP positive nuclei fraction [5] [%],cleaved PARP positive nuclei fraction [6] [%],cleaved PARP positive nuclei fraction [7] [%],cleaved PARP positive nuclei fraction [8] [%],cleaved PARP positive nuclei fraction [9] [%],cleaved PARP positive nuclei fraction [10] [%]
"C#Cc1cccc(Nc2ncnc3cc(OCCOC)c(OCCOC)cc23)c1 [erlotinib] + Cn1nnc2c(C(N)=O)ncn2c1=O [temozolomide] (first compound 0.8 µM, partner dose 2 µM)",122,98.5,88.2,142,93.7,68.4,106,129,88.9,
"Cn1c(Nc2ccc(C(F)(F)F)cc2)nc2cc(Oc3ccnc(-c4ncc(C(F)(F)F)[nH]4)c3)ccc21 + COCC[n+]1c2c(n(Cc3cnccn3)c1C)C(=O)c1ccccc1C2=O [YM155] (first compound 0.08 µM, partner dose 0.0004 µM)",261,34.5,54.7,226,96,151,115,331,140,
"C=CCNC1=C2C[C@@H](C)C[C@H](OC)[C@H](O)[C@@H](C)/C=C(\C)[C@H](OC(N)=O)[C@@H](OC)/C=C\C=C(/C)C(=O)NC(=CC1=O)C2=O [Tanespimycin] + OCc1c[nH]c2ccccc12 [Indole-3-carbinol] (first compound 0.002 µM, partner dose 0.8 µM)",342,92.4,221,71.6,119,63.8,107,175,104,
"CC(=O)c1c(C)c2cnc(Nc3ccc(N4CCNCC4)cn3)nc2n(C2CCCC2)c1=O [palbociclib] + C#Cc1cccc(Nc2ncnc3cc(OCCOC)c(OCCOC)cc23)c1 [erlotinib] (first compound 0.04 µM, partner dose 0.8 µM)",185,215,129,325,69.2,71.6,109,70.4,128,
"Cn1c(Nc2ccc(C(F)(F)F)cc2)nc2cc(Oc3ccnc(-c4ncc(C(F)(F)F)[nH]4)c3)ccc21 + Cn1nnc2c(C(N)=O)ncn2c1=O [temozolomide] (first compound 0.08 µM, partner dose 2 µM)",416,160,239,644,92.4,89.7,104,130,137,
"OCc1c[nH]c2ccccc12 [Indole-3-carbinol] + Cn1c(Nc2ccc(C(F)(F)F)cc2)nc2cc(Oc3ccnc(-c4ncc(C(F)(F)F)[nH]4)c3)ccc21 [CHIR265] (first compound 0.8 µM, partner dose 0.08 µM)",150,149,102,650,78.9,153,98.5,59,122,
"C=CCNC1=C2C[C@@H](C)C[C@H](OC)[C@H](O)[C@@H](C)/C=C(\C)[C@H](OC(N)=O)[C@@H](OC)/C=C\C=C(/C)C(=O)NC(=CC1=O)C2=O [Tanespimycin] + C#Cc1cccc(Nc2ncnc3cc(OCCOC)c(OCCOC)cc23)c1 [erlotinib] (first compound 0.002 µM, partner dose 0.8 µM)",146,92.1,64.1,136,165,160,136,99.8,140,
"COCC[n+]1c2c(n(Cc3cnccn3)c1C)C(=O)c1ccccc1C2=O + COC(=O)c1sccc1S(=O)(=O)Nc1ccc(Nc2ccccc2)cc1OC [GSK0660] (first compound 0.0004 µM, partner dose 1 µM)",47.2,179,374,351,56.9,,99.7,109,305,302
"CO[C@@H]1[C@H](N(C)C(=O)c2ccccc2)C[C@H]2O[C@]1(C)n1c3ccccc3c3c4c(c5c6ccccc6n2c5c31)C(=O)NC4 [Midostaurin] + O=c1cc(-c2cccc3c2Sc2ccccc2S3)oc(N2CCOCC2)c1 [KU55933] (first compound 0.08 µM, partner dose 1 µM)",148,128,230,142,70.5,,118,105,75.9,255
"Cc1nc(Nc2ncc(C(=O)Nc3c(C)cccc3Cl)s2)cc(N2CCN(CCO)CC2)n1 [dasatanib] + Nc1cccc2c1CN(C1CCC(=O)NC1=O)C2=O [lenalidomide] (first compound 0.004 µM, partner dose 1 µM)",84.9,144,477,141,84.8,119,93.3,51.2,112,
"Clc1ccc(Nc2nnc(Cc3ccncc3)c3ccccc23)cc1 [vatalanib] + Cn1c(Nc2ccc(C(F)(F)F)cc2)nc2cc(Oc3ccnc(-c4ncc(C(F)(F)F)[nH]4)c3)ccc21 [CHIR265] (first compound 2 µM, partner dose 0.08 µM)",131,84.4,227,158,87.7,76.2,165,121,129,
"Cn1c(Nc2ccc(C(F)(F)F)cc2)nc2cc(Oc3ccnc(-c4ncc(C(F)(F)F)[nH]4)c3)ccc21 + C[C@]1(c2nc3c(C(N)=O)cccc3[nH]2)CCCN1 [Veliparib] (first compound 0.08 µM, partner dose 1.4 µM)",210,80.3,159,220,109,127,114,152,96.9,
"CO[C@@H]1[C@H](N(C)C(=O)c2ccccc2)C[C@H]2O[C@]1(C)n1c3ccccc3c3c4c(c5c6ccccc6n2c5c31)C(=O)NC4 [Midostaurin] + COc1cc(N2CCC(N3CCN(C)CC3)CC2)ccc1Nc1ncc(Cl)c(Nc2ccccc2S(=O)(=O)C(C)C)n1 [NVP-TAE684] (first compound 0.08 µM, partner dose 0.08 µM)",326,58.1,74.5,128,70.5,,118,48,74.7,244
"O=C(CCCCCCC(=O)Nc1ccccc1)NO [vorinostat] + COc1ccc(COc2ccc(Cc3cnc(N)nc3N)cc2OC)cc1 [GW2580] (first compound 0.08 µM, partner dose 1 µM)",182,95.8,132,48.6,125,,87.7,74.2,85.8,138
"OCc1c[nH]c2ccccc12 [Indole-3-carbinol] + Cn1nnc2c(C(N)=O)ncn2c1=O [temozolomide] (first compound 0.8 µM, partner dose 2 µM)",136,97.6,83.7,59.5,91.1,41,122,178,95.6,
"Cc1cc(N2CCOCC2)cc2[nH]c(-c3c(NC[C@@H](O)c4cccc(Cl)c4)cc[nH]c3=O)nc12 + COc1cc(N2CCC(N3CCN(C)CC3)CC2)ccc1Nc1ncc(Cl)c(Nc2ccccc2S(=O)(=O)C(C)C)n1 [NVP-TAE684] (first compound 0.2 µM, partner dose 0.08 µM)",286,117,44.5,535,157,,104,118,82.8,154
"C=CCn1c(=O)c2cnc(Nc3ccc(N4CCN(C)CC4)cc3)nc2n1-c1cccc(C(C)(C)O)n1 + CCc1ccc(CCOc2ccc(CC3SC(=O)NC3=O)cc2)nc1 [pioglitazone] (first compound 0.02 µM, partner dose 2 µM)",182,76.6,69.8,326,85.2,,114,81.2,106,166
"Nc1cccc2c1CN(C1CCC(=O)NC1=O)C2=O (configuration not stated) [lenalidomide] + COc1cc2ncnc(Nc3ccc(Oc4ccccc4)cc3)c2cc1OC [SrcI1] (first compound 1 µM, partner dose 2 µM)",240,154,293,81.5,54.1,,89.6,106,101,94.8
"OCCn1cc(-c2cnc3nnn(Cc4ccc5ncccc5c4)c3n2)cn1 + CCc1ccc(CCOc2ccc(CC3SC(=O)NC3=O)cc2)nc1 [pioglitazone] (first compound 1 µM, partner dose 2 µM)",131,63.3,96.5,143,73,,94.8,87.5,42.8,258
"Nc1cccc2c1CN(C1CCC(=O)NC1=O)C2=O (configuration not stated) [lenalidomide] + C[C@]1(c2nc3c(C(N)=O)cccc3[nH]2)CCCN1 [Veliparib] (first compound 1 µM, partner dose 1.4 µM)",88.6,44.1,109,183,78.4,92.5,88.8,79.7,116,
"Cc1ccc(NC(=O)c2cccc(N(C)C)c2)cc1NC(=O)c1ccc(O)cc1 + CC(C)CCN1c2nc(Nc3cc(F)c(O)c(F)c3)ncc2N(C)C(=O)C1C [BID1870] (first compound 2 µM, partner dose 0.2 µM)",43.1,69.9,47.1,209,111,,164,24.5,178,328
"C#Cc1cccc(Nc2ncnc3cc(OCCOC)c(OCCOC)cc23)c1 [erlotinib] + Nc1cccc2c1CN(C1CCC(=O)NC1=O)C2=O [lenalidomide] (first compound 0.8 µM, partner dose 1 µM)",89.3,140,106,221,65.9,292,114,93.9,141,
"C=CCNC1=C2C[C@@H](C)C[C@H](OC)[C@H](O)[C@@H](C)/C=C(\C)[C@H](OC(N)=O)[C@@H](OC)/C=C\C=C(/C)C(=O)NC(=CC1=O)C2=O [Tanespimycin] + Clc1ccc(Nc2nnc(Cc3ccncc3)c3ccccc23)cc1 [vatalanib] (first compound 0.002 µM, partner dose 2 µM)",88.6,122,142,53.1,170,263,128,322,265,

# Reformatted: entries from further up.
Structure (SMILES) | cleaved PARP positive nuclei fraction [1] [%] | cleaved PARP positive nuclei fraction [2] [%] | cleaved PARP positive nuclei fraction [3] [%] | cleaved PARP positive nuclei fraction [4] [%] | cleaved PARP positive nuclei fraction [5] [%] | cleaved PARP positive nuclei fraction [6] [%] | cleaved PARP positive nuclei fraction [7] [%] | cleaved PARP positive nuclei fraction [8] [%] | cleaved PARP positive nuclei fraction [9] [%] | cleaved PARP positive nuclei fraction [10] [%]
OCCn1cc(-c2cnc3nnn(Cc4ccc5ncccc5c4)c3n2)cn1 + CCc1ccc(CCOc2ccc(CC3SC(=O)NC3=O)cc2)nc1 [pioglitazone] (first compound 1 µM, partner dose 2 µM) | 131 | 63.3 | 96.5 | 143 | 73 |  | 94.8 | 87.5 | 42.8 | 258
Nc1cccc2c1CN(C1CCC(=O)NC1=O)C2=O (configuration not stated) [lenalidomide] + C[C@]1(c2nc3c(C(N)=O)cccc3[nH]2)CCCN1 [Veliparib] (first compound 1 µM, partner dose 1.4 µM) | 88.6 | 44.1 | 109 | 183 | 78.4 | 92.5 | 88.8 | 79.7 | 116 | 
